The source of these data is publication PMC9976902, “Interaction of human HelQ with DNA polymerase delta halts DNA synthesis and stimulates DNA single-strand annealing” (Nucleic Acids Research, 2022).

Sequences of proteins named here, by UniProt entry; tags and fusion partners are left off. A change or cut given only in a name is not applied to a line headed by its entry.
UniProt Q8TDG4: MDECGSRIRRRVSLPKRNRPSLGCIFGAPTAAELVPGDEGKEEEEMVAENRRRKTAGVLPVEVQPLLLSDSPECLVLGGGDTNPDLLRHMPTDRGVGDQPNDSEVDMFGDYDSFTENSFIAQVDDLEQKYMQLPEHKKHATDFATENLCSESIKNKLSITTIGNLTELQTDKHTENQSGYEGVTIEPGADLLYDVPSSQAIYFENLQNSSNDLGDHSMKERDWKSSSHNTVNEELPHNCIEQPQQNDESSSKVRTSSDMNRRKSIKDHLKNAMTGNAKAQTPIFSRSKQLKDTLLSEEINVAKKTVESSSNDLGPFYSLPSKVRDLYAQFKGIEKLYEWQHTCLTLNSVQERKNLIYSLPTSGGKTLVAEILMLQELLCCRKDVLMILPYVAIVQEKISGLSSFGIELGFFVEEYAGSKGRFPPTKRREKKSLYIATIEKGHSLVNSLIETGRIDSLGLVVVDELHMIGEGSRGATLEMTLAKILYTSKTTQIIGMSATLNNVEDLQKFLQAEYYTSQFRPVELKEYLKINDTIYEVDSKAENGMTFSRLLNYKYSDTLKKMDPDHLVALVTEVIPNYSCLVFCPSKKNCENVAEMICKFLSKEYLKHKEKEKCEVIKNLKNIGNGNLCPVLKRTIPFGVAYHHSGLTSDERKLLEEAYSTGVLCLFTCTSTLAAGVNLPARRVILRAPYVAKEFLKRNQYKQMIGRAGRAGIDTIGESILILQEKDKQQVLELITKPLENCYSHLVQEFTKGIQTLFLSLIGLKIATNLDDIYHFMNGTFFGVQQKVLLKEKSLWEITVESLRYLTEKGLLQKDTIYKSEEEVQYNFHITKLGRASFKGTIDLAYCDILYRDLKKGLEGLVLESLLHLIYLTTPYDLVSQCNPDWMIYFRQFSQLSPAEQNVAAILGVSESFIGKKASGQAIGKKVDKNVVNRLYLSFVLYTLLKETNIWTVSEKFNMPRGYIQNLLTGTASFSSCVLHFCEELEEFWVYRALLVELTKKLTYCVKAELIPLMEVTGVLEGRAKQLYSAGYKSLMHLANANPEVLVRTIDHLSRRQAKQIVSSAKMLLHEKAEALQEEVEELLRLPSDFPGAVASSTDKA

The exact form of at least one protein or probe is not confirmed. A negative result means that nothing was seen under these conditions.

For the series, the target named is HelQΔWHD (human) (UniProt Q8TDG4). The series can be described thus: EMSA. To be noted: 50 mM EDTA, HelQΔWHD 100-400 nM, DNA 15 nM, EMSA: 20 mM Tris-HCl pH 7.5, 7% glycerol, 25 mM DTT, 25 nM DNA (Methods; 15 nM in legend), 37 C 10 min, 5% TBE gel, recombinant protein.

Consider “GTCGGATCCTCTAGACAGCTCCATGATCACTGGCACTGGTAGAATTCGGC / CAACGTCATAGACGATTACATTGCTACATGGAGCTGTCTAGAGGATCCGA [forked DNA (MW12/MW14)]”, for which the binding result is reported as “no binding”.
